# Source: article PMC12431657, “Discovery and mechanistic insights of dibenzoylmethane as a broad spectrum inhibitor of coronavirus” (PLOS Pathogens, 2025)
# Where a name gives a salt, the structure may show the parent alone. Read-outs that look alike come from different tables or passages of the source. Out of some 3,300 compounds screened, about 60 (2%) showed an effect of 50% or more. The list shows a part of the results.
# System: HCoV-OC43
# Set-up: species or system RD; HTS, protection from HCoV-OC43 induced cell death, luminescent cell viability (CellCounting-Lite 2.0), inhibition rate
# Conditions: 24 h post infection, 1 h compound pre-incubation, 10 µM, inhibitor
Structure (SMILES),OC43 Inhibition rate,"OC43 Inhibition rate (OC43 Inhibition rate, 24 h)"
O=C(O)C1CCCCC1 [Cyclohexanecarboxylic acid],10.2%,–
CC(=O)N[C@@H](CC(N)=O)C(=O)O [(S)-2-acetamido-4-amino-4-oxobutanoic acid],0.1%,–
CC(C)CCC[C@](C)(O)[C@H]1CC[C@H]2[C@@H]3CC=C4C[C@@H](O)CC[C@]4(C)[C@H]3CC[C@@]21C [20(S)-Hydroxycholesterol],0%,–
COC(=O)[C@H]1[C@H]2C[C@H]3c4[nH]c5ccccc5c4CCN3C[C@H]2CC[C@@H]1O [Rauwolscine (hydrochloride)],0.1%,–
CCCCCCCC(=O)c1c(O)cc(O)cc1CC(=O)OCC [Cytosporone B],0.2%,–
CC(C)=CCC[C@@H](C)[C@@H]1CC[C@]2(C)C3=C(CC[C@@]12C)[C@@]1(C)CC[C@H](O)C(C)(C)[C@@H]1CC3 [Euphol],25.9%,–
CCCCC/C=C\C/C=C\C/C=C\C/C=C\CCCC(=O)O[C@H]1CC[C@@]2(C)C(=CC[C@H]3[C@@H]4CC[C@H]([C@H](C)CCCC(C)C)[C@@]4(C)CC[C@@H]32)C1 [Cholesteryl arachidonate],0%,–
COc1ccc(CCC(=O)c2c(O)cc(O[C@@H]3O[C@H](CO)[C@@H](O)[C@H](O)[C@H]3O[C@@H]3O[C@@H](C)[C@H](O)[C@@H](O)[C@H]3O)cc2O)cc1O [Neohesperidin dihydrochalcone],0%,–
O=C(/C=C/c1ccc(O)c(O)c1)O[C@@H](C(=O)O)[C@@H](O)C(=O)O [Caftaric acid],0.6%,–
CO[C@H]1C[C@H](O[C@H]2CC[C@@]3(C)[C@H](CC[C@@H]4[C@@H]3CC[C@]3(C)[C@@H](C5=CC(=O)OC5)[C@@H](OC(C)=O)C[C@]43O)C2)O[C@@H](C)[C@@H]1O [Oleandrin],1.5%,–
C=C(C)[C@@H]1CC[C@]2(C(=O)O[C@@H]3O[C@H](CO[C@@H]4O[C@H](CO)[C@@H](O[C@@H]5O[C@@H](C)[C@H](O)[C@@H](O)[C@H]5O)[C@H](O)[C@H]4O)[C@@H](O)[C@H](O)[C@H]3O)CC[C@]3(C)[C@H](CC[C@@H]4[C@@]5(C)CC[C@H](O[C@@H]6OC[C@H](O)[C@H](O)[C@H]6O[C@@H]6O[C@@H](C)[C@H](O)[C@@H](O)[C@H]6O)[C@@](C)(CO)[C@@H]5CC[C@]43C)[C@@H]12 [Pulchinenoside C],-0.7%,–
CCCCC/C=C\C/C=C\CCCCCCCCO [Linoleyl alcohol],4.7%,–
"CC1(C)COC(=O)[C@@H]1O [(R)-3-Hydroxy-4,4-dimethyldihydrofuran-2(3H)-one]",-0.1%,–
CC(C)=CCC[C@](C)(O[C@@H]1O[C@H](CO[C@@H]2OC[C@@H](O)[C@H](O)[C@H]2O)[C@@H](O)[C@H](O)[C@H]1O)[C@H]1CC[C@]2(C)[C@@H]1[C@H](O)C[C@@H]1[C@@]3(C)CC[C@H](O[C@@H]4O[C@H](CO)[C@@H](O)[C@H](O)[C@H]4O[C@@H]4O[C@H](CO)[C@@H](O)[C@H](O)[C@H]4O)C(C)(C)[C@@H]3CC[C@]12C [Ginsenoside Rb3],-0.1%,–
C[C@H](CCC(=O)O)[C@H]1CC[C@H]2[C@@H]3[C@@H](O)C[C@@H]4C[C@H](O)CC[C@]4(C)[C@H]3C[C@H](O)[C@]12C [Ursocholic acid],0.7%,–
CCC[C@@H]1C[C@@H](C(=O)N[C@@H]([C@H]2O[C@H](SC)[C@H](O)[C@@H](O)[C@H]2O)[C@@H](C)O)N(C)C1 [Lincomycin (hydrochloride monohydrate)],-2.1%,–
O=Cc1ccccc1C(=O)O [2-Carboxybenzaldehyde],-0.4%,–
CC(C)=CCc1cc2c(cc1O)O[C@H](c1ccc(O)cc1)CC2=O [Bavachin],66.9%,–
C/C=C(/C)C(=O)O[C@H]1[C@H](OC(C)=O)[C@]2(CO)[C@H](O)C[C@]3(C)C(=CC[C@@H]4[C@@]5(C)CC[C@H](O[C@@H]6O[C@H](C(=O)O)[C@@H](O[C@@H]7O[C@H](CO)[C@@H](O)[C@H](O)[C@H]7O)[C@H](O)[C@H]6O[C@@H]6O[C@H](CO)[C@@H](O)[C@H](O)[C@H]6O)[C@](C)(CO)[C@@H]5CC[C@]43C)[C@@H]2CC1(C)C [Escin IB],0.4%,–
O=C(O)c1ccc(=O)oc1 [Coumalic acid],10.5%,–
COc1cc2oc(-c3ccc(O)c(O)c3)cc(=O)c2c(O)c1OC [Cirsiliol],26.8%,–
c1cc2c(c3c1CC1c4cc5c(cc4CCN1C3)OCO5)OCO2 (racemic) [(±)-Stylopine],-0.3%,–
COc1ccc2cc3[n+](cc2c1OC)CCc1cc2c(cc1-3)OCO2 [Berberine (chloride hydrate)],–,-15%
CCc1cccc(C)c1O [2-Ethyl-6-methylphenol],-0.6%,–
COc1ccc(-c2cc(=O)c3c(OC)c(OC)c(OC)c(OC)c3o2)cc1OC [Nobiletin],7.9%,–
COc1cc(-c2coc3cc4c(c(O)c3c2=O)OCO4)cc(O)c1OC [Dichotomitin],0.4%,–

Structure (SMILES),OC43 Inhibition rate,"OC43 Inhibition rate (OC43 Inhibition rate, 24 h)"
C[C@@H]1CC[C@@]2(OC1)O[C@H]1C[C@H]3[C@@H]4CC=C5C[C@@H](O[C@@H]6O[C@H](CO)[C@@H](O[C@@H]7O[C@@H](C)[C@H](O)[C@@H](O)[C@H]7O)[C@H](O)[C@H]6O[C@@H]6O[C@@H](C)[C@H](O)[C@@H](O)[C@H]6O)CC[C@]5(C)[C@H]4CC[C@]3(C)[C@H]1[C@@H]2C [Dioscin],-0.2%,–
CC1(C)C=Cc2c(ccc3c2OC[C@@H](c2ccc(O)cc2O)C3)O1 [Glabridin],-1.6%,–
O=c1cc[nH]c(=O)[nH]1 [Uracil],-0.3%,–
O=C(O)[C@H]1O[C@@H](Oc2cc(O)c3c(=O)cc(-c4ccc(O)cc4)oc3c2)[C@H](O)[C@@H](O)[C@@H]1O [Apigenin-7-glucuronide],0.4%,–
"O=C(O)c1c(O)cccc1O [2,6-Dihydroxybenzoic acid]",3.5%,–
COc1cc2c(c(OC)c1OC)-c1c(cc(OC)c(OC)c1OC)C[C@](C)(O)[C@@H](C)C2 [Schisandrin],-0.2%,–
CS(C)(=O)=O [Dimethyl sulfone],3.1%,–
Oc1cc(O)c2c(c1)O[C@H](c1ccc(O)c(O)c1)[C@@H](O)C2 [Catechin],–,-0.5%
C=C[C@]12CN(C)[C@@H]3[C@H]4CO[C@H](C[C@H]41)[C@]1(C(=O)N(OC)c4ccccc41)[C@@H]32 [Gelsevirine],-1%,–
O=C1Nc2ccccc2C1=O [Isatin],-0.4%,–
COc1ccc(-c2cc(=O)c3c(OC)c(OC)c(OC)c(OC)c3o2)cc1 [Tangeretin],27.2%,–
C[C@H](O)C(=O)N[C@@H](Cc1ccccc1)C(=O)O [N-Lactoyl-Phenylalanine],-1.3%,–
C[C@H](CC[C@@H](O)C(C)(C)O)[C@H]1CC[C@@]2(C)[C@@H]3CC=C4[C@@H](CC[C@H](O)C4(C)C)[C@]3(C)C(=O)C[C@]12C [Bryodulcosigenin],13.2%,–
"N[C@@H](Cc1cc(I)c(O)c(I)c1)C(=O)O [(S)-2-Amino-3-(4-hydroxy-3,5-diiodophenyl)propanoic acid dihydrate]",0.8%,–
CN1C(C(=O)Nc2ccccn2)=C(O)c2sc(Cl)cc2S1(=O)=O [Lornoxicam],5.4%,–
COc1ccc2c3c1O[C@H]1C[C@@H](O)C=C[C@@]31CCN(C)C2 [Galanthamine],–,-0.2%
OC[C@H]1O[C@@H](Oc2cc(O)cc(/C=C/c3ccc(O[C@@H]4O[C@H](CO)[C@@H](O)[C@H](O)[C@H]4O)cc3O)c2)[C@H](O)[C@@H](O)[C@@H]1O [Mulberroside A],0.3%,–
OC1OC[C@@H](O)[C@@H](O)[C@@H]1O (stereo partly drawn) [D-arabinose],–,3.8%
O=C1C=CC[C@@H]2[C@H]3CCCN4CCC[C@@H](CN12)[C@@H]34 [Sophocarpine],–,-0.5%
"COc1cc(OC)c2c(=O)cc(-c3ccc(O)c(O)c3)oc2c1 [5,7-Dimethoxyluteolin]",-0.8%,–
NCCc1c[nH]cn1 [Histamine],–,0.9%
CC1(C)CC[C@]2(C(=O)O)CC[C@]3(C)C(=CC[C@@H]4[C@@]5(C)CC[C@H](O[C@@H]6O[C@H](C(=O)O)[C@@H](O)[C@H](O)[C@H]6O[C@@H]6O[C@H](CO)[C@@H](O)[C@H](O)[C@H]6O)C(C)(C)[C@@H]5CC[C@]43C)[C@@H]2C1 [Zingibroside R1],-1.5%,–
O=C(O)c1cccnc1 [Niacin],-0.3%,–
CC[C@H]1OC(=O)C[C@@H](O)[C@H](C)[C@@H](O[C@@H]2O[C@H](C)[C@@H](O[C@H]3C[C@@](C)(O)[C@@H](O)[C@H](C)O3)[C@H](N(C)C)[C@H]2O)[C@@H](CC=O)C[C@@H](C)C(=O)/C=C/C(C)=C/[C@@H]1CO[C@@H]1O[C@H](C)[C@@H](O)[C@@H](OC)[C@H]1OC [Tylosin (phosphate)],–,16.6%
O=C(O)c1cc(O)c2c(c1)C(=O)c1cccc(O[C@@H]3O[C@H](CO)[C@@H](O)[C@H](O)[C@H]3O)c1C2=O [Rhein 8-Glucoside],1.1%,–
CC(=O)O[C@@H]1C[C@H](O)[C@@]23CO[C@@H](O)[C@]1(C)[C@@H]2C[C@@H](O)[C@]1(C)[C@@H]3C(=O)[C@H](OC(C)=O)[C@@]2(C)[C@H](c3ccoc3)C[C@H]3O[C@]321 [Toosendanin],-0.8%,–

# Four compounds from above, ordered by SMILES length, falling:
Structure (SMILES),OC43 Inhibition rate,"OC43 Inhibition rate (OC43 Inhibition rate, 24 h)"
C[C@H](CC[C@@H](O)C(C)(C)O)[C@H]1CC[C@@]2(C)[C@@H]3CC=C4[C@@H](CC[C@H](O)C4(C)C)[C@]3(C)C(=O)C[C@]12C [Bryodulcosigenin],13.2%,–
O=C(O)[C@H]1O[C@@H](Oc2cc(O)c3c(=O)cc(-c4ccc(O)cc4)oc3c2)[C@H](O)[C@@H](O)[C@@H]1O [Apigenin-7-glucuronide],0.4%,–
O=C(O)c1cc(O)c2c(c1)C(=O)c1cccc(O[C@@H]3O[C@H](CO)[C@@H](O)[C@H](O)[C@H]3O)c1C2=O [Rhein 8-Glucoside],1.1%,–
CC1(C)C=Cc2c(ccc3c2OC[C@@H](c2ccc(O)cc2O)C3)O1 [Glabridin],-1.6%,–
